The other results are listed elsewhere or left out.
Compound: CC1Cc2ccccc2N1C(=O)C1CCCN(C1)C(=O)CCl (mixture of isomers) [TRIM25 ligand 11 (diastereomer mixture)]
Experiment: probe-labelled cysteine peptide fold change vs DMSO (competition) (log2 fold change); higher = less target engagement (more negative = stronger competition)
Conditions: THP-1, incubation time: 4 h
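Note: competitive chemoproteomic profiling in live THP-1 cells with an iodoacetamide desthiobiotin (IA-DTB) probe, comparing probe-labelled peptide intensities in compound-treated cells against DMSO-treated controls.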

By UniProt entry, the sequences of proteins in these tests, tags left out. Where a name states a change or a piece, a line headed by the entry shows the natural chain unless it says otherwise.
UniProt O43829: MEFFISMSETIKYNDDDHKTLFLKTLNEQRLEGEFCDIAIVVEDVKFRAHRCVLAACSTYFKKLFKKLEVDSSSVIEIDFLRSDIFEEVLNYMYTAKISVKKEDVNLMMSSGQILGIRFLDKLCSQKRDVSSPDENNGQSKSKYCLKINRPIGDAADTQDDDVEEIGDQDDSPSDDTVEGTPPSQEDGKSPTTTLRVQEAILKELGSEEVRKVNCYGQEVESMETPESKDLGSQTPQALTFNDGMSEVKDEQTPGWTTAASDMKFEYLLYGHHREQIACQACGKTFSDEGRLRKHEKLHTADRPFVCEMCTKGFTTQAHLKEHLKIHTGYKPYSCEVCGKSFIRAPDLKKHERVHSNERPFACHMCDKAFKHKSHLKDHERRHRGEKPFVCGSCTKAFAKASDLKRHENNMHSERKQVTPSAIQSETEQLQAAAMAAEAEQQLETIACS
UniProt Q8NCP5: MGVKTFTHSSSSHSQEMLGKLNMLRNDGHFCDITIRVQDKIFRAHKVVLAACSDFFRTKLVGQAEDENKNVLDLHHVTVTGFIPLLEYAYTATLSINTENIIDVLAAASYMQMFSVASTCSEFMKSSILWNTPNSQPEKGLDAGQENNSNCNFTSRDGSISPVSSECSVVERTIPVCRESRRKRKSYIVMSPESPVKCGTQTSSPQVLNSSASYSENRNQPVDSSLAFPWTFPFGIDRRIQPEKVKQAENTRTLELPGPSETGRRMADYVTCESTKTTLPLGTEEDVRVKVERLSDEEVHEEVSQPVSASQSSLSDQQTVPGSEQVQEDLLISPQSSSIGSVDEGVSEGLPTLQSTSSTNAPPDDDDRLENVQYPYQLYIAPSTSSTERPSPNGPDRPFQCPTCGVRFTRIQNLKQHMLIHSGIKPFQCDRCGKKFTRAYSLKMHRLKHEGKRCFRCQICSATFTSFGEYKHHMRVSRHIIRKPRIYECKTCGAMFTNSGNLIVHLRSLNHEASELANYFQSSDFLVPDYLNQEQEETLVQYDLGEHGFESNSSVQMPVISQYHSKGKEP
UniProt Q9UPT8: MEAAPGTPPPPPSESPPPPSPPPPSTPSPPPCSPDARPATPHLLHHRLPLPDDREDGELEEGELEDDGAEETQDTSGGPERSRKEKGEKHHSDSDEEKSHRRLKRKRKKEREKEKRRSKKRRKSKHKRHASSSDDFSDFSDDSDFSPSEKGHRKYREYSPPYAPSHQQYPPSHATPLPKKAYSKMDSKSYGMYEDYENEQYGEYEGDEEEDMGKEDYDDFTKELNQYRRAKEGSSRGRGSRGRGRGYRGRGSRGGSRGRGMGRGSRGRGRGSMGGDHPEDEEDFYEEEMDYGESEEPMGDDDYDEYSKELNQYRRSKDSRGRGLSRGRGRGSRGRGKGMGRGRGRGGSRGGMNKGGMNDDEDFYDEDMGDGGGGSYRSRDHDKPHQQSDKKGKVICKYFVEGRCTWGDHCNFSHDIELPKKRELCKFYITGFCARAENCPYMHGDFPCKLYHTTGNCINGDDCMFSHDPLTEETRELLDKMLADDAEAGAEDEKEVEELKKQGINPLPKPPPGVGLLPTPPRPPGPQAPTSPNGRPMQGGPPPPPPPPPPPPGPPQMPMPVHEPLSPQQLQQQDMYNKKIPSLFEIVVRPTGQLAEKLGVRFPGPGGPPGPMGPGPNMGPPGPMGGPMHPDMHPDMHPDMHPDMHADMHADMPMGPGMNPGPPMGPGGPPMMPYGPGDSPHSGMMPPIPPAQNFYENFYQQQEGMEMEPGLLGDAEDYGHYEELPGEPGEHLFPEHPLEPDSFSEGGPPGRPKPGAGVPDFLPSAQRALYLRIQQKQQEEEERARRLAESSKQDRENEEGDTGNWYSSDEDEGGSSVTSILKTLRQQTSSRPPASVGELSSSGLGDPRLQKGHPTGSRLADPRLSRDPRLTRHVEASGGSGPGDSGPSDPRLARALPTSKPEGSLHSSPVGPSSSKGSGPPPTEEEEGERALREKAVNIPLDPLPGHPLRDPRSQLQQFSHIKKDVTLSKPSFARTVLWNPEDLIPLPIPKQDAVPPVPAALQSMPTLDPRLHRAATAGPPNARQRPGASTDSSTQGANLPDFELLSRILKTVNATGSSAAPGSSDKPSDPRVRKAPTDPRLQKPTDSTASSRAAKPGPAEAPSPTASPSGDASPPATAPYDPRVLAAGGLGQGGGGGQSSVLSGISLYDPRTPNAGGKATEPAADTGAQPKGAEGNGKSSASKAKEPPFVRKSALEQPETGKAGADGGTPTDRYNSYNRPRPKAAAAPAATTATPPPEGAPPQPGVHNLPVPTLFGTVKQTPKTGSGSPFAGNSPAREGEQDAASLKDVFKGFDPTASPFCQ
UniProt O75132: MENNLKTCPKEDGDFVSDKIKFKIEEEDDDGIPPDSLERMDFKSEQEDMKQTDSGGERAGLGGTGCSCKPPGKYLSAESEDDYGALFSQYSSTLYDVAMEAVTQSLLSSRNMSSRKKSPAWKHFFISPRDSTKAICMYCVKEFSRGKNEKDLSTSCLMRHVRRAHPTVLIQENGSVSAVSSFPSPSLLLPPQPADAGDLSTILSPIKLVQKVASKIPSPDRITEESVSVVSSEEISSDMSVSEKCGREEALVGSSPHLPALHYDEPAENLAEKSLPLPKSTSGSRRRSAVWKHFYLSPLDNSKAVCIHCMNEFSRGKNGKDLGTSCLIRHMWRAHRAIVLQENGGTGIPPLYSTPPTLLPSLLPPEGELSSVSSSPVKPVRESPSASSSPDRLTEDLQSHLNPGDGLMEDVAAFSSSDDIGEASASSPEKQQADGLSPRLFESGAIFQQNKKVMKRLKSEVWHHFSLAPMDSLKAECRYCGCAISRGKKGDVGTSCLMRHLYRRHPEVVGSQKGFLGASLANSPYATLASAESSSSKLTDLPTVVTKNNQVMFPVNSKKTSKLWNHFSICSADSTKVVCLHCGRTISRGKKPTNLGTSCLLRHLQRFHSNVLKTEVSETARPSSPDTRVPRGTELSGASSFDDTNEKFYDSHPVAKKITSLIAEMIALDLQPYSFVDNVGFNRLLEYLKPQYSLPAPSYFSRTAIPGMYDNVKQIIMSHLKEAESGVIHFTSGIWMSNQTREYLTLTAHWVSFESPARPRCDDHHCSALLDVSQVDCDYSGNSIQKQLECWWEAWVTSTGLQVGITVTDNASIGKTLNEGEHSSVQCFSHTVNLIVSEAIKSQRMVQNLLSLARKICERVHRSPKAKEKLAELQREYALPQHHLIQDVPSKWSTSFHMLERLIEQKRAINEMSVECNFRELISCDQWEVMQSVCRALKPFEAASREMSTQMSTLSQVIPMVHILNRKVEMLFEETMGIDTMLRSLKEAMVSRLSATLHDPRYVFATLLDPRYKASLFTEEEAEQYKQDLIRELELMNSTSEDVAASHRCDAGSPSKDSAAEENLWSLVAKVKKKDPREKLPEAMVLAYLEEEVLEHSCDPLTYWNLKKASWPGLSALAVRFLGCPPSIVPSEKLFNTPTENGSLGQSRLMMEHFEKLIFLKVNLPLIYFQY
UniProt A2A288: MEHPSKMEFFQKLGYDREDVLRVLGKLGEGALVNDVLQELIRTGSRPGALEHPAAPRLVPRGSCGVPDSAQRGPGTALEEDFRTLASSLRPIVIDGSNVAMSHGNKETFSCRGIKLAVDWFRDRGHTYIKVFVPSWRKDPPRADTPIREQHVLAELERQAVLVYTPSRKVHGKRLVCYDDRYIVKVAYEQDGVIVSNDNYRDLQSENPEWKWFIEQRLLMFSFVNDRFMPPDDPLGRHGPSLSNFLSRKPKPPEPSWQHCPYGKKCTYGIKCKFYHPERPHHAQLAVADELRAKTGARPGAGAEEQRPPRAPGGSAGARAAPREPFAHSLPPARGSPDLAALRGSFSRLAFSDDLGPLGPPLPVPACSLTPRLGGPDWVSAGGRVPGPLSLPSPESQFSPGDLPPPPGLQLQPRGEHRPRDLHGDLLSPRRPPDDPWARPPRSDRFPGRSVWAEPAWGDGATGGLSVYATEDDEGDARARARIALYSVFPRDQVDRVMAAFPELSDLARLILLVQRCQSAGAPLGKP
UniProt Q9HAV4: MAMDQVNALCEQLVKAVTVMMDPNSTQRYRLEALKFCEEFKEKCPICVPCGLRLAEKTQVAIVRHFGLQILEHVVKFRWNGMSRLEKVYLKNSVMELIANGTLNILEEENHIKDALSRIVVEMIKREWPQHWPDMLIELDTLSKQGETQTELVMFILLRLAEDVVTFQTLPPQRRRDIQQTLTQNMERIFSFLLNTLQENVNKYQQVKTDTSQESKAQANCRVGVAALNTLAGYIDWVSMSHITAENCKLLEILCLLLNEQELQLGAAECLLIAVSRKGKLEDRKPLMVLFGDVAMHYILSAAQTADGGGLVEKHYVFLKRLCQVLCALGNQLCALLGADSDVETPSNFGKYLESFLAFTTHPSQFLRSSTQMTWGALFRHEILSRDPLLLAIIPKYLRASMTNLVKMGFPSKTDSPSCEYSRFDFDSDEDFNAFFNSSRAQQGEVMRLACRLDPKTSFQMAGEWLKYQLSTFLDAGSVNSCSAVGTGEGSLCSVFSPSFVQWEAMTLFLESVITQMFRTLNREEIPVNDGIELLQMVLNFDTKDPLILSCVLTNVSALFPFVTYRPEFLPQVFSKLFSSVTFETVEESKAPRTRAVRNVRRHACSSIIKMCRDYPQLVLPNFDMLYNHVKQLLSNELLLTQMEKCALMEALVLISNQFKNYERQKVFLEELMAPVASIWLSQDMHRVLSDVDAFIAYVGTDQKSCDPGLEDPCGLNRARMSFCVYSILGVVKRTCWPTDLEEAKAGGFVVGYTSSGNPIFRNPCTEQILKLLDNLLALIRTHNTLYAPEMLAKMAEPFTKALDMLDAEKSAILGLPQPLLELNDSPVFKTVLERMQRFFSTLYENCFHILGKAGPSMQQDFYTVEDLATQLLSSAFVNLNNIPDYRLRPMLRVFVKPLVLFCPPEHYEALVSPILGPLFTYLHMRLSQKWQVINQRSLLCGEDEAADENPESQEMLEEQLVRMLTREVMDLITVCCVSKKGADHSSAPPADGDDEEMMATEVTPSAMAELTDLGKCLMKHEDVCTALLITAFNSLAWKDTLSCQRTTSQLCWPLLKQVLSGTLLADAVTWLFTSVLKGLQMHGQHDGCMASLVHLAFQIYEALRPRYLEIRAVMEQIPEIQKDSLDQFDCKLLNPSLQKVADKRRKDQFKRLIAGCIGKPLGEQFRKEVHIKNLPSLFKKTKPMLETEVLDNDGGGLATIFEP
UniProt Q7Z2W4: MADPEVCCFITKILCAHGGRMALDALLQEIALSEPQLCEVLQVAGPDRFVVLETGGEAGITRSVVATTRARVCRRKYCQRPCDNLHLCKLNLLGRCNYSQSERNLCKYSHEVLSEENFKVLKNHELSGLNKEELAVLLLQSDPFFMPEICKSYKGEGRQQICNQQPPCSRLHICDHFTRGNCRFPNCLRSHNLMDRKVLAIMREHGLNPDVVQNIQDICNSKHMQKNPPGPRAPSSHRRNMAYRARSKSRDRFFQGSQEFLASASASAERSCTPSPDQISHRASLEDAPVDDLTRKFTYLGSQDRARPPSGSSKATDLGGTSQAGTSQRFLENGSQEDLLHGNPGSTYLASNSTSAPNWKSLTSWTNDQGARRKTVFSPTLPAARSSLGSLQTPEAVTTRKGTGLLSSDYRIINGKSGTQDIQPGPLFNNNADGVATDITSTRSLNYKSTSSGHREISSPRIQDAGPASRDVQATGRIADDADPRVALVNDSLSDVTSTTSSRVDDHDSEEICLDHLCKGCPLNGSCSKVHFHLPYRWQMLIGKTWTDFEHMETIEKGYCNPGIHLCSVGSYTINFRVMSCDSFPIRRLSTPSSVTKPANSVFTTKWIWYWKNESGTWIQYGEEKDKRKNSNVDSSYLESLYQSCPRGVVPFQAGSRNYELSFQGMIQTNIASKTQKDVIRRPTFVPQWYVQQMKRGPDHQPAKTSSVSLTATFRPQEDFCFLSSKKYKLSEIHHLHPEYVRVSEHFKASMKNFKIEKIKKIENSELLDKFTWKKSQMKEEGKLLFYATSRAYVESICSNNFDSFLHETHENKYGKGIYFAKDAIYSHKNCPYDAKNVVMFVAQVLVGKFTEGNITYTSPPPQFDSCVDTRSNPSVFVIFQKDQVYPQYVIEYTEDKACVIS
UniProt Q9NUD5: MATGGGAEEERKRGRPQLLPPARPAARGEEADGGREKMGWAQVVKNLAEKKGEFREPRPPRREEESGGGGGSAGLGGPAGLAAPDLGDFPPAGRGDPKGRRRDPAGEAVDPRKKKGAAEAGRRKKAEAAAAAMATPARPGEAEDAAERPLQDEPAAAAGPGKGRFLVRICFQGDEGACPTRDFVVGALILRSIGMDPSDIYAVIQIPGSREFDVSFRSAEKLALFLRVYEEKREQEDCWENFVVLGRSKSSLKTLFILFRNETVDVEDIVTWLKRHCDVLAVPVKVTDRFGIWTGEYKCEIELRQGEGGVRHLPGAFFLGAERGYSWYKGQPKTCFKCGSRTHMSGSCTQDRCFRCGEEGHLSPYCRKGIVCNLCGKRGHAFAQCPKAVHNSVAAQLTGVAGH

| Target | probe-labelled cysteine peptide fold change (10 µM) | probe-labelled cysteine peptide fold change (50 µM) |
| --- | --- | --- |
| ZBTB14_O43829_52_CVLAACSTYFK (UniProt O43829) | 0.0232 | 0.309 |
| XRCC6_P12956_398_EVAALCR (UniProt P12956) | 0.104 | 0.219 |
| XRN1_Q8IZH2_1104_PLEQQHGVIPDRDAEFCLFDR (UniProt Q8IZH2) | -0.142 | 0.418 |
| ZBTB44_Q8NCP5_272_MADYVTCESTK (UniProt Q8NCP5) | -0.0378 | -0.103 |
| ZC3H4_Q9UPT8_448_AENCPYMHGDFPCK (UniProt Q9UPT8) | -0.0343 | 0.123 |
| ZC3HC1_Q86WB0_112_YGWVTVECDMLK (UniProt Q86WB0) | -0.0653 | -0.0077 |
| ZBED4_O75132_156_DLSTSCLMR (UniProt O75132) | -0.0156 | 0.00774 |
| ZC3H12D_A2A288_64_GSCGVPDSAQR (UniProt A2A288) | -0.0296 | -0.256 |
| XPO5_Q9HAV4_736_TCWPTDLEEAK (UniProt Q9HAV4) | -0.0191 | 0.136 |
| ZC3HAV1_Q7Z2W4_831_NCPYDAK (UniProt Q7Z2W4) | 0.0735 | 0.175 |
| ZFAND1_Q8TCF1_15_AELDIGQHCQVEHCR (UniProt Q8TCF1) | 0.0342 | 0.0973 |
| ZCCHC3_Q9NUD5_375_GIVCNLCGK (UniProt Q9NUD5) | -0.0111 | 0.0681 |
| XRN2_Q9H0D6_21_KYPSIIVNCVEEKPK (UniProt Q9H0D6) | 0.147 | 0.023 |
| YWHAB_P31946_191_ACSLAK (UniProt P31946) | -0.111 | 0.00871 |
| ZCCHC8_Q6NZY4_607_SEAGHASSPDSEVTSLCQK (UniProt Q6NZY4) | 0.197 | -0.304 |
| ZDHHC4_Q9NPG8_337_SNLQEIFLPAFPCHER (UniProt Q9NPG8) | 0.108 | -0.46 |
| ZC3H12D_A2A288_111_ETFSCR (UniProt A2A288) | -0.0665 | 0.136 |
| YWHAE_P62258_97+98_LICCDILDVLDK (UniProt P62258) | -0.0436 | 0.12 |
| ZC3HAV1_Q7Z2W4_15_ILCAHGGR (UniProt Q7Z2W4) | 0.0881 | 0.0508 |
| XPO5_Q9HAV4_10_AMDQVNALCEQLVK (UniProt Q9HAV4) | 0.118 | -0.00124 |

Reprinted at random: 2 records from the list

| Target | probe-labelled cysteine peptide fold change (10 µM) | probe-labelled cysteine peptide fold change (50 µM) |
| --- | --- | --- |
| ZC3H12D_A2A288_64_GSCGVPDSAQR (UniProt A2A288) | -0.0296 | -0.256 |
| ZC3HAV1_Q7Z2W4_15_ILCAHGGR (UniProt Q7Z2W4) | 0.0881 | 0.0508 |

From the supplement of paper PMC12067093, “Discovery and optimisation of a covalent ligand for TRIM25 and its application to targeted protein ubiquitination” (Chemical Science, 2025)
